Earlier results in patent US10443018B2, “Phenyl based compounds substituted with aldehyde moieties and their use in perfumery” (GIVAUDAN SA, priority 2014, dated 2019).
At least one compound was matched to its structure with a doubt left.

Tested on: glucose synthesis and fatty acid synthesis
Conditions: in vitro (McCune et al 1982); cited from earlier work

## CC(C)(C)c1ccc(C(=O)O)cc1 [tert-butyl benzoic acid]
  inhibition of glucose synthesis and fatty acid synthesis: inhibit glucose synthesis and fatty acid synthesis
